We go through eleven substances from US12535491B2, “Vaccine comprising protein-targeted (PT) extracellular DNA isolated from bacterial matrix” (priority 2018, dated 2026).

This data set relates to heat-resistant proteins of human plasma. The experiment in a line: LC/MS of heat-resistant proteins in plasma after exposure to proteinase K and boiling. Conditions: LC/MS; healthy human blood plasma after incubation for 30 minutes with Proteinase K, following heating for 100° C. for 5 minutes (probe_2).
For the substance CO3_HUMAN, the “N-plasma + pK” value came out at 88.
In the case of CO6_HUMAN it was 4.
In the case of CO8G_HUMAN it was 1.
CON_Q2UVX4: the “N-plasma + pK” value is listed as 6.
For HEMO_HUMAN, the “N-plasma + pK” value is listed as 53.
The same measure for IC1_HUMAN: 8; for IGLC7_HUMAN: 13; for KV105_HUMAN: 1.
The same measure for PLMN_HUMAN: 22.
TRFE_HUMAN: the “N-plasma + pK” value came out at 134.
In the case of TRFE_HUMAN [TRFE_HUMAN [2]] it was 135.
